Some of the results follow.
Columns and labels:
Experiment in all cases: log2 fold change, soluble protein after heating vs DMSO (PISA); higher = thermal stabilisation; K562 cells, 10 uM, 30 min; active = over 0.2 and 3.5 SD of the protein, either way, in both replicates (recomputed)
[1] = compound: C#Cc1cccc(Nc2ncnc3cc(OCCOC)c(OCCOC)cc23)c1 [erlotinib]
Outline: (§1)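 Soluble protein was defined as the supernatant after 21,000xg for 90 min. It came from K562 cells at 2×10^6 cells/mL given 10 μM compound for 30 min, heated in aliquots for 3 min across 48°C-58°C, pooled, and extracted in PBS with 0.5% NP-40 at 4°C, and was quantified by TMTpro 16plex LC-MS/MS with equalised channel sums. Thermal stability against control samples, from duplicates, is reported as log2 fold change.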

Protein sequences, listed by entry. Tags and fused reporters are not part of them. Lines headed by an entry give the natural chain unless they say otherwise; changes in a name come on top.
UniProt Q9Y2U5: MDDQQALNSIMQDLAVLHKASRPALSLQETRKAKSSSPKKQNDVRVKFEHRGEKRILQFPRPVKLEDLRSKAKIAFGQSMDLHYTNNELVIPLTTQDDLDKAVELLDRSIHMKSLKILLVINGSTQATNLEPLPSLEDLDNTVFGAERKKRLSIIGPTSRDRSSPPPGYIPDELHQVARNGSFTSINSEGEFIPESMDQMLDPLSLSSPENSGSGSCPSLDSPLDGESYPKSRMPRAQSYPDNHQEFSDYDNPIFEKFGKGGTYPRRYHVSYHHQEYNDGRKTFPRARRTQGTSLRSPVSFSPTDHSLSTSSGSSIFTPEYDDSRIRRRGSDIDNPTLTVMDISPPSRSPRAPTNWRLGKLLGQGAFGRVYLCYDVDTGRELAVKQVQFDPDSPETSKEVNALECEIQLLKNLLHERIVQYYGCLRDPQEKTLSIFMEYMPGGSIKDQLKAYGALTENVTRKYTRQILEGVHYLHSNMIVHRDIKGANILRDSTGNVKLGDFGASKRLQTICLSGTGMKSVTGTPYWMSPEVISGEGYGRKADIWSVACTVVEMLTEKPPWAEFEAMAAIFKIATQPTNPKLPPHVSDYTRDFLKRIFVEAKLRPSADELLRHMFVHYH
UniProt Q32MZ4: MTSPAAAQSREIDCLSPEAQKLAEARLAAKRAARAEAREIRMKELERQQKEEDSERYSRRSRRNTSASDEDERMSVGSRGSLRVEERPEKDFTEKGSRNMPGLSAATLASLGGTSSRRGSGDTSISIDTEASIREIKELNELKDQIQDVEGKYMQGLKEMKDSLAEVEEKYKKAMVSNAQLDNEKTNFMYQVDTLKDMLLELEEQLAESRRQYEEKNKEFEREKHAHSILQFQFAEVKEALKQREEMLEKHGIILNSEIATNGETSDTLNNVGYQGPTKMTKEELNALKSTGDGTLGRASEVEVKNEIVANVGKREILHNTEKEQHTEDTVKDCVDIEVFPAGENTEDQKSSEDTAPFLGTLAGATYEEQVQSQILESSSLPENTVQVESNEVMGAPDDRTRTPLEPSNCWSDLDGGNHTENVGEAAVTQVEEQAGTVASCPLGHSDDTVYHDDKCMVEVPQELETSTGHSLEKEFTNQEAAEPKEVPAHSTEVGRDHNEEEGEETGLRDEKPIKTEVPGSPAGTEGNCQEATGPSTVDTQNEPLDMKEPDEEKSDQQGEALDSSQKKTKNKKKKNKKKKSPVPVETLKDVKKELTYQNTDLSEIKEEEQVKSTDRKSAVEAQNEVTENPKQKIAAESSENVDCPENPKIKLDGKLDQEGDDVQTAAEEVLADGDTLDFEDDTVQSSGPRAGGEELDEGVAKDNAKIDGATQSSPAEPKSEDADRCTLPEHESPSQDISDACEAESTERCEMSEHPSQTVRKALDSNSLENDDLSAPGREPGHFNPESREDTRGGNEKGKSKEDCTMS
UniProt P27448: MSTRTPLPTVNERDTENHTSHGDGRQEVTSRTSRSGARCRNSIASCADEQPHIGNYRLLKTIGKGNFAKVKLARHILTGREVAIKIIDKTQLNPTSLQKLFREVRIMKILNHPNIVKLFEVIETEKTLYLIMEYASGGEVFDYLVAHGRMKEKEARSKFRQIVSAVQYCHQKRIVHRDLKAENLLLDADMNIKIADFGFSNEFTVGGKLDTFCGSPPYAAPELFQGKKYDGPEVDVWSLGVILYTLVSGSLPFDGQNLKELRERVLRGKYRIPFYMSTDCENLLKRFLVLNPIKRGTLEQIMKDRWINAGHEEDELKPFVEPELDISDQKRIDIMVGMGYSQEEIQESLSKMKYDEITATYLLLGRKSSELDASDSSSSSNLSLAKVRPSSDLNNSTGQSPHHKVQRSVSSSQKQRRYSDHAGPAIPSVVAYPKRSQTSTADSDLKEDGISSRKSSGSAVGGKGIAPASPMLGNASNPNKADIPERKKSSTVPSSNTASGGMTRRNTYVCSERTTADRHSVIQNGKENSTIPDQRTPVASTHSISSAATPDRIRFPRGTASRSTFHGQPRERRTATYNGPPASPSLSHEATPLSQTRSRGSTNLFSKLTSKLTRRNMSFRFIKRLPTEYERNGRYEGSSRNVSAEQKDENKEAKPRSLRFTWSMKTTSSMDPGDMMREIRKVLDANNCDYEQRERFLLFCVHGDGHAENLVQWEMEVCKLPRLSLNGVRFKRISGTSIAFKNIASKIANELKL
UniProt P43361: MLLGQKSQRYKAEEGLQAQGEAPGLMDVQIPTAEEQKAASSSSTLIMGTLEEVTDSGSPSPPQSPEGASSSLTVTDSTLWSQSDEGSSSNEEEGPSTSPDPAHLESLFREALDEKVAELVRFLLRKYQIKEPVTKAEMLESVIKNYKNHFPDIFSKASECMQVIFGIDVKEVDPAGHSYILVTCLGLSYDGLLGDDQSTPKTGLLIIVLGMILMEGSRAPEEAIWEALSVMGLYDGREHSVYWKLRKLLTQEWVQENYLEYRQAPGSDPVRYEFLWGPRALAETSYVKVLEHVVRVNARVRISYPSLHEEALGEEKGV
UniProt Q9Y6R4: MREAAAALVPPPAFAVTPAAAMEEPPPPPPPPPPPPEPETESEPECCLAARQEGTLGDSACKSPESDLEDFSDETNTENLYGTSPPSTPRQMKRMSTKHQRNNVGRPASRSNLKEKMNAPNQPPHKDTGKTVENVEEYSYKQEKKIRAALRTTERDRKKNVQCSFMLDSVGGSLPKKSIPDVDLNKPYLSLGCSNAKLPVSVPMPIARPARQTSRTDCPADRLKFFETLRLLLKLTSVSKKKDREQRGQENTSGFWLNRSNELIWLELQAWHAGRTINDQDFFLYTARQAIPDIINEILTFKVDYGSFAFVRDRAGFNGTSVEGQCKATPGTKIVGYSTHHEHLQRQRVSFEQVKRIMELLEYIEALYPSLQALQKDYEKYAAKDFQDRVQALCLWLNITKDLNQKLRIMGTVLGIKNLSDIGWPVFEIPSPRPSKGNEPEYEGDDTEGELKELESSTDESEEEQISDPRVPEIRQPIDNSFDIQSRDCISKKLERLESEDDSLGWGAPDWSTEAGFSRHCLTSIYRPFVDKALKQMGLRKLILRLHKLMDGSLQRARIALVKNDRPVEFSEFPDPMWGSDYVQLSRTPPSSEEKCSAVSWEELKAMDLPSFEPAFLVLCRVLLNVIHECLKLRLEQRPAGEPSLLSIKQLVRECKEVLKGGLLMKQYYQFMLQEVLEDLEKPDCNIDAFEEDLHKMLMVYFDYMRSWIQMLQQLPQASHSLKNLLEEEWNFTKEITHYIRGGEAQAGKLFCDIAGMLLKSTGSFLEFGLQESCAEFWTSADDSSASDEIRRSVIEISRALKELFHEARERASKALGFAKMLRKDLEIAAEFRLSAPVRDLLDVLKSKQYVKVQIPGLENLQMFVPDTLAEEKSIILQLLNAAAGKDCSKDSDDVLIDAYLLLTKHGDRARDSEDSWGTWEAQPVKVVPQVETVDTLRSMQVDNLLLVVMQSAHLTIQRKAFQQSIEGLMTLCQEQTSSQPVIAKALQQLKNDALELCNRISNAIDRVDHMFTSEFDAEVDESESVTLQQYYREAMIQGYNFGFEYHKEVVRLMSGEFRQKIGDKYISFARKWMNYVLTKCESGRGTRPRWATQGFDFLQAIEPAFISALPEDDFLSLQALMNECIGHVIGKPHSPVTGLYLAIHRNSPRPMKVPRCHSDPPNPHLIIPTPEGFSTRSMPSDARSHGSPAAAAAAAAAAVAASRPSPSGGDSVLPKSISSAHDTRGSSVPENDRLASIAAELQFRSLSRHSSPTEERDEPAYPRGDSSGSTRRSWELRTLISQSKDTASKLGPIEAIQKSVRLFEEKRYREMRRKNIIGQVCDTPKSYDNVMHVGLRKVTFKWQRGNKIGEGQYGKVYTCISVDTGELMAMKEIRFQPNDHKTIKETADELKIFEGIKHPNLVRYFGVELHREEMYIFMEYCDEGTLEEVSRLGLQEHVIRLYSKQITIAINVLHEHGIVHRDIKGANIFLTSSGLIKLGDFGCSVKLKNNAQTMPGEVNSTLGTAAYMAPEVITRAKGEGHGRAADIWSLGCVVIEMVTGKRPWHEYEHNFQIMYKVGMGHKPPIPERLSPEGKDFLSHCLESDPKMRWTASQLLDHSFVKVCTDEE
UniProt Q9BQ69: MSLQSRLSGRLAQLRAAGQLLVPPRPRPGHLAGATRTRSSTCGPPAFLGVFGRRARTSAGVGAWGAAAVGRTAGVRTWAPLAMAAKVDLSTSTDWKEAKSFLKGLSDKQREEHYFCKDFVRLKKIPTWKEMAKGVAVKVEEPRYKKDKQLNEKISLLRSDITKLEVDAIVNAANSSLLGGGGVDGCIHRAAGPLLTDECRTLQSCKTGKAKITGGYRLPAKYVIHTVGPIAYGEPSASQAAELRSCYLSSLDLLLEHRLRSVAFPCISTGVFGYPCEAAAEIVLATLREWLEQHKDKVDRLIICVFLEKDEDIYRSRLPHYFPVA
UniProt Q86V48: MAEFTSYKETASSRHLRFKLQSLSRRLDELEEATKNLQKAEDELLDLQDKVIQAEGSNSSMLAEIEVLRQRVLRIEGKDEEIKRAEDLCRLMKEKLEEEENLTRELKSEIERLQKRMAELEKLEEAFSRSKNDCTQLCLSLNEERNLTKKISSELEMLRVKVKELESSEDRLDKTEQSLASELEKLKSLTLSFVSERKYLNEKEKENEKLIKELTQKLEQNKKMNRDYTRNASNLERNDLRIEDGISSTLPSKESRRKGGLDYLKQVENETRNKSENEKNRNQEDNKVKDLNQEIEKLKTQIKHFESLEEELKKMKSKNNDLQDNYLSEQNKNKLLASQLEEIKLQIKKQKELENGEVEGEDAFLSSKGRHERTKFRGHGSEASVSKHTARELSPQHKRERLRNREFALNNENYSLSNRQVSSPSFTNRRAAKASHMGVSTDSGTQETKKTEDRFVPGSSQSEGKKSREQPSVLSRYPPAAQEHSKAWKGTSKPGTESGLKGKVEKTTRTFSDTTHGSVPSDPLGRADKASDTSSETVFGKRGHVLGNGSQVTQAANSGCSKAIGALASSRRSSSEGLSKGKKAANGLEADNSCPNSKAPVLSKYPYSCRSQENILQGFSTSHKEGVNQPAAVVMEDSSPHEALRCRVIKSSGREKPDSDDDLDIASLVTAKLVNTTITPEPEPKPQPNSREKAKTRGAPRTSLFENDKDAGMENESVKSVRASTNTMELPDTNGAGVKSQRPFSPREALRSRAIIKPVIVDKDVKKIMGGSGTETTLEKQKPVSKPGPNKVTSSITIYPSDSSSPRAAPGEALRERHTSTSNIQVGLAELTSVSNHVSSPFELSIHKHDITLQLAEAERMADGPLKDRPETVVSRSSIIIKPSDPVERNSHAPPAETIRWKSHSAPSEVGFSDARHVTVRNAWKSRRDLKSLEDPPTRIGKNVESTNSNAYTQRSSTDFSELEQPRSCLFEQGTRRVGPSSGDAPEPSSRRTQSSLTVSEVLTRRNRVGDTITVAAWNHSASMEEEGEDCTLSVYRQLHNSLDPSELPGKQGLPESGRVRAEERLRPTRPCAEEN
UniProt Q66K74: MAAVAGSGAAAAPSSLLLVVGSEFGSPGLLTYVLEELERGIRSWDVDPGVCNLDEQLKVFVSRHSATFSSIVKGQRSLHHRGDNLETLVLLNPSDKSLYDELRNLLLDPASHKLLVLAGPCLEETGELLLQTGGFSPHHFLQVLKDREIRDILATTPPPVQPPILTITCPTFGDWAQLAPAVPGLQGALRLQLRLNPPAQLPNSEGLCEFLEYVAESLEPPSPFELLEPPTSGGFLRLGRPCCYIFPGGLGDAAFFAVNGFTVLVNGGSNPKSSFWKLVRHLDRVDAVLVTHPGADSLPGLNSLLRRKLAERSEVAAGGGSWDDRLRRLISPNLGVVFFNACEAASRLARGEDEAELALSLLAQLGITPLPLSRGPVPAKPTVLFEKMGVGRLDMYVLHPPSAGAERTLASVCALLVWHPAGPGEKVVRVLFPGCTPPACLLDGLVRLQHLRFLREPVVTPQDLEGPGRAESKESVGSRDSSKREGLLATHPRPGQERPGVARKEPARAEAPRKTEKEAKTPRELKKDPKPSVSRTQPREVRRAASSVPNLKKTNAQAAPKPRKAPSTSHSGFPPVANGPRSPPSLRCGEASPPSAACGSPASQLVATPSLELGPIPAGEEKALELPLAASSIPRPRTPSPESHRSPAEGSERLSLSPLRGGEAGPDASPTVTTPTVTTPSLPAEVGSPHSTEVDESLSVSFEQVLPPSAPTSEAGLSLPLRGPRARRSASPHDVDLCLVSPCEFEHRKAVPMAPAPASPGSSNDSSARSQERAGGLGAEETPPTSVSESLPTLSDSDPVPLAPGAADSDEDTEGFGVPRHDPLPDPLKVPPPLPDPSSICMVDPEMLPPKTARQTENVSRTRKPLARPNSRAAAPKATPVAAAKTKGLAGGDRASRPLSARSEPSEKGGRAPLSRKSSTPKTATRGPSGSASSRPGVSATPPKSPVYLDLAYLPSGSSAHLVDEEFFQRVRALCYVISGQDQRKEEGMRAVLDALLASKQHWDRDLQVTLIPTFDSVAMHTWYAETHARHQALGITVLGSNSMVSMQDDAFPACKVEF

[2] = compound: C/C(=N\NC(=O)C1=CC(=CC=C1)S(=O)(=O)N2CCOCC2)/C3=C(C=CC(=C3)Cl)O
Outline: as §1

[3] = compound: C1=CC(=C(C=C1Cl)C2=NC3=NC=CN=C3C(=N2)NC4=CC=NC=C4)F
Outline: as §1

[4] = compound: C1=CC(=CC=C1C2=NC3=C(N2)C=C(C=C3)C(=O)N)OC4=CC=C(C=C4)Cl
Outline: as §1

[5] = compound: C1=CC2=C(C=CC(=C2)/C=C\3/C(=O)NC(=NCC4=CC=CS4)S3)N=C1
Outline: as §1

[6] = compound: C1=CC2=NC=CN=C2C=C1/C=C/3\C(=O)NC(=O)S3
Outline: as §1

[7] = compound: C1=CC=C(C=C1)C2=NC(=C(N2)C3=CC=NC=C3)C4=CC(=C(C=C4)Cl)O
Outline: as §1

[8] = compound: C1=CC=C2C(=C1)C3=NNC4=CC=CC(=C43)C2=O
Outline: as §1

[9] = compound: C1CCN(C1)C(=O)NC2=CC=CC(=C2)NC3=NC=C(C(=N3)NCCC4=CN=CN4)Br
Outline: as §1

[10] = compound: C1CN(CCC1(CC2=CC=C(C=C2)Cl)N)C3=NC=NC4=C3C=CN4
Outline: as §1

Measured: log2 fold change

MAN1B1 (UniProt Q9UKM7)
inactive: [1] 0.103 | [2] 0.022 | [3] 0.029 | [4] 0.016 | [5] 0.06 | [6] 0.005 | [7] -0.014 | [8] 0.026 | [9] -0.04 | [10] -0.019

MAP3K2 (UniProt Q9Y2U5)
inactive: [1] 0.125 | [2] 0.012 | [3] 0.081 | [4] -0.024 | [5] -0.096 | [6] -0.066 | [7] 0.092 | [8] 0.129 | [9] -0.16 | [10] 0.198

LTO1 (UniProt Q8WV07)
inactive: [1] -0.095 | [2] 0.072 | [3] 0.032 | [4] 0.059 | [5] 0.002 | [6] 0.089 | [7] -0.035 | [8] -0.052 | [9] -0.032 | [10] 0.169

LYZ (UniProt P61626)
inactive: [1] 0.019 | [2] 0.024 | [3] 0.057 | [4] 0.108 | [5] 0.041 | [6] -0.115 | [7] -0.009 | [8] -0.001 | [9] -0.026 | [10] -0.024

MAP3K7 (UniProt O43318)
inactive: [1] 0.078 | [2] 0.009 | [3] -0.067 | [4] -0.091 | [5] 0.034 | [6] -0.031 | [7] -0.016 | [8] 0.113 | [9] -0.005 | [10] -0.168

MANBA (UniProt O00462)
inactive: [1] 0.018 | [2] 0.013 | [3] 0.029 | [4] 0.011 | [5] 0.028 | [6] 0.033 | [7] -0.034 | [8] -0.018 | [9] 0.003 | [10] 0.036

MAD1L1 (UniProt Q9Y6D9)
inactive: [1] 0 | [2] -0.475 | [3] 0.375 | [4] 0.017 | [5] 0.073 | [6] 0.06 | [7] 0.224 | [8] -0.062 | [9] 0.12 | [10] 0.564

LSM4 (UniProt Q9Y4Z0)
inactive: [1] -0.038 | [2] -0.006 | [3] 0.044 | [4] 0.019 | [5] -0.026 | [6] 0.053 | [7] 0.007 | [8] -0.012 | [9] 0.019 | [10] 0.068

MAGEA9 (UniProt P43362)
inactive: [1] 0.05 | [2] 0.032 | [3] 0.001 | [4] 0.076 | [5] -0.07 | [6] 0.074 | [7] -0.021 | [8] -0.058 | [9] -0.191 | [10] 0.018

LRRFIP1 (UniProt Q32MZ4)
inactive: [1] 0.072 | [2] -0.045 | [3] -0.027 | [4] 0.018 | [5] -0.01 | [6] 0.052 | [7] -0.024 | [8] -0.042 | [9] 0.056 | [10] 0.041

MARK3 (UniProt P27448)
inactive: [1] 0.009 | [2] 0.116 | [3] -0.031 | [4] 0.014 | [5] 0 | [6] 0.008 | [7] -0.032 | [9] -0.221 | [10] -0.208
active: [8] -0.578

MAPK6 (UniProt Q16659)
inactive: [1] 0.015 | [2] 0.018 | [3] -0.031 | [4] 0.045 | [5] 0.044 | [6] -0.145 | [8] 0.146 | [9] -0.053 | [10] -0.058

LRRC8D (UniProt Q7L1W4)
inactive: [1] -0.209 | [2] -0.046 | [3] -0.404 | [4] 0.005 | [5] -0.091 | [7] -0.043 | [8] 0.108 | [9] -0.222 | [10] -0.148

Fetched one by one from the list above, three records:
LRRC8D (UniProt Q7L1W4)
inactive: [1] -0.209 | [2] -0.046 | [3] -0.404 | [4] 0.005 | [5] -0.091 | [7] -0.043 | [8] 0.108 | [9] -0.222 | [10] -0.148

MAGEA9 (UniProt P43362)
inactive: [1] 0.05 | [2] 0.032 | [3] 0.001 | [4] 0.076 | [5] -0.07 | [6] 0.074 | [7] -0.021 | [8] -0.058 | [9] -0.191 | [10] 0.018

LRRFIP1 (UniProt Q32MZ4)
inactive: [1] 0.072 | [2] -0.045 | [3] -0.027 | [4] 0.018 | [5] -0.01 | [6] 0.052 | [7] -0.024 | [8] -0.042 | [9] 0.056 | [10] 0.041

Following part.

MAPK14 (UniProt Q16539)
inactive: [1] 0.238 | [2] 0.106 | [4] -0.116 | [5] -0.054 | [6] 0.001 | [8] 0.174 | [9] 0.051 | [10] -0.072
active: [7] 1.04

MAPT isoform 9 (UniProt P10636)
inactive: [1] 0.155 | [2] -0.072 | [3] -0.116 | [4] -0.003 | [5] -0.057 | [6] 0.063 | [8] -0.056

LRRC8C (UniProt Q8TDW0)
inactive: [1] 0.009 | [2] -0.058 | [3] -0.049 | [4] -0.073 | [5] -0.131 | [7] -0.09 | [8] 0.031

MAGEA8 (UniProt P43361)
inactive: [1] 0.033 | [2] 0.038 | [4] -0.075 | [5] -0.04 | [6] 0.132 | [7] -0.028 | [8] -0.098 | [9] 0.052 | [10] 0.099

LSM12 isoform 2 (UniProt Q3MHD2)
inactive: [1] 0.023 | [2] 0.006 | [3] -0.019 | [4] -0.076 | [5] 0.002 | [6] -0.007 | [7] 0.026 | [8] 0.005 | [9] -0.013 | [10] -0.034

MAP4K5 (UniProt Q9Y4K4)
inactive: [1] -0.001 | [2] 0.057 | [3] 0.05 | [4] 0.051 | [5] 0.143 | [6] -0.025 | [7] -0.039 | [9] -0.083 | [10] 0.152

LRRFIP1 isoform 4 (UniProt Q32MZ4)
active: [2] -1.2
inactive: [1] -0.122 | [3] -0.121 | [4] -0.006 | [5] -0.045 | [8] 0.072

MAP3K4 isoform 2 (UniProt Q9Y6R4)
inactive: [1] -0.027 | [2] 0.019 | [3] 0.036 | [4] -0.023 | [5] 0.039 | [6] -0.017 | [7] -0.023 | [8] -0.031 | [9] 0.034 | [10] 0.07

LTBP4 (UniProt Q8N2S1)
inactive: [1] 0.03 | [2] 0.048 | [3] 0.023 | [4] -0.079 | [5] 0.015 | [8] -0.049 | [9] -0.028 | [10] 0.086

MAP3K20 isoform 2 (UniProt Q9NYL2)
inactive: [1] -0.002 | [2] -0.128 | [3] 0.051 | [4] 0.052 | [5] -0.091 | [8] -0.168 | [9] -0.004 | [10] 0.007

MACROD1 (UniProt Q9BQ69)
inactive: [1] 0.088 | [2] 0.264 | [3] 0.095 | [4] 0.032 | [5] 0.228 | [6] 0.083 | [7] 0.128 | [8] -0.004 | [9] -0.059 | [10] 0.069

LUM (UniProt P51884)
inactive: [1] -0.147 | [2] -0.043 | [3] 0.095 | [4] 0.039 | [5] 0.063 | [7] -0.057 | [8] -0.068 | [9] 0.185 | [10] 0.307

LUZP1 (UniProt Q86V48)
inactive: [1] -0.094 | [2] -0.035 | [3] -0.328 | [4] -0.01 | [5] -0.131 | [6] -0.095 | [7] -0.091 | [8] -0.187 | [9] -0.06 | [10] -0.297

MAN2A2 (UniProt P49641)
inactive: [1] -0.034 | [2] 0.005 | [3] 0.016 | [4] 0.018 | [5] 0.08 | [6] 0.009 | [7] 0.055 | [8] -0.011 | [9] -0.026 | [10] 0.004

MACF1 (UniProt H3BQK9)
inactive: [1] -0.064 | [2] 0.069 | [3] -0.079 | [4] -0.019 | [5] 0.038 | [6] 0.059 | [7] -0.063 | [8] -0.053 | [9] 0.008 | [10] -0.079

MAP1S (UniProt Q66K74)
inactive: [1] -0.016 | [2] 0.099 | [3] 0.012 | [4] 0.001 | [5] -0.025 | [6] 0.01 | [7] 0.017 | [8] 0.005 | [9] 0.015 | [10] -0.059

LYN isoform 2 (UniProt P07948)
inactive: [1] -0.387 | [2] 0.117 | [3] -0.234 | [4] -0.152 | [5] 0.146 | [8] -0.163

LSS (UniProt P48449)
inactive: [1] 0.293 | [2] 0.073 | [3] -0.029 | [4] 0.051 | [5] 0.128 | [6] 0.069 | [7] -0.005 | [8] 0.081 | [9] 0.005 | [10] 0.089

MAGED1 isoform 2 (UniProt Q9Y5V3)
inactive: [1] 0.024 | [2] 0.044 | [3] -0.311 | [4] -0.059 | [5] -0.064 | [8] -0.012
